Values quoted from earlier work, collected in US20100204328A1, “Solution and Method to Reduce, Treat and/or Prevent Oxidative Stress and Cell Activation” (priority 2006, published 2010).
At least one read-out could not be matched to a standard name with certainty.

Conditions: FIG. 29; cited from earlier work

For `O=C1O[C@H]([C@@H](O)CO)C(O)=C1O` [vitamin C], the “bioavailability, intravenous compared to oral” value is listed as “Intravenous applications are superior compared to oral applications”.
